# According to PubChem BioAssay AID188 (DTP/NCI, 2004):
# Shown are survivors of the treated group in tumour-free mice. Counts of survivors are from the toxicity check (mostly the fifth day) where no day follows; animals may have died later. Schedule codes are those of the source, taken here to give the interval after Q, in days (D) or hours (H), and the number of doses after X.
# Tested on: CD2F1 mice, nontumored, toxicity/survival
# Assay: NCI In Vivo Anticancer Drug Screen. Data for tumor model Nontumored Animals (Toxicity Test) in CD2F1 (CDF1) mice
smiles,measurement,setting,value
CC(C)CCCCCCCCCCCCC(=O)NCC(=O)NC1C(O)C(O)C(Nc2ncnc3nc[nH]c23)OC1C(O)CO (stereo unspecified),survivor count,"dose: 0.06 mg/kg/injection, schedule: Q01DX009 (ip), vehicle: Klucel (hydroxypropylcellulose) (HPC)",8 of 8
same,survivor count,"dose: 0.13 mg/kg/injection, schedule: Q01DX009 (ip), vehicle: Klucel (hydroxypropylcellulose) (HPC)",8 of 8
same,survivor count,"dose: 0.25 mg/kg/injection, schedule: Q01DX009 (ip), vehicle: Klucel (hydroxypropylcellulose) (HPC)",8 of 8
same,survivor count,"dose: 0.25 mg/kg/injection, schedule: Q03HX008 (ip), vehicle: Klucel (hydroxypropylcellulose) (HPC)",8 of 8
same,survivor count,"dose: 0.25 mg/kg/injection, schedule: Q03HX016 (ip), vehicle: Klucel (hydroxypropylcellulose) (HPC)",8 of 8
same,survivor count,"dose: 0.25 mg/kg/injection, schedule: Q03HX024 (ip), vehicle: Klucel (hydroxypropylcellulose) (HPC)",8 of 8
same,survivor count,"dose: 0.5 mg/kg/injection, schedule: Q01DX009 (ip), vehicle: Klucel (hydroxypropylcellulose) (HPC)",8 of 8
same,survivor count,"dose: 0.5 mg/kg/injection, schedule: Q01DX009 (oral), vehicle: Klucel (hydroxypropylcellulose) (HPC)",8 of 8
same,survivor count,"dose: 0.5 mg/kg/injection, schedule: Q03HX008 (ip), vehicle: Klucel (hydroxypropylcellulose) (HPC)",8 of 8
same,survivor count,"dose: 0.5 mg/kg/injection, schedule: Q03HX016 (ip), vehicle: Klucel (hydroxypropylcellulose) (HPC)",8 of 8
same,survivor count,"dose: 0.5 mg/kg/injection, schedule: Q03HX024 (ip), vehicle: Klucel (hydroxypropylcellulose) (HPC)",8 of 8
same,survivor count,"dose: 1.0 mg/kg/injection, schedule: Q01DX009 (ip), vehicle: Klucel (hydroxypropylcellulose) (HPC)",8 of 8
same,survivor count,"dose: 1.0 mg/kg/injection, schedule: Q01DX009 (oral), vehicle: Klucel (hydroxypropylcellulose) (HPC)",8 of 8
same,survivor count,"dose: 1.0 mg/kg/injection, schedule: Q03HX008 (ip), vehicle: Klucel (hydroxypropylcellulose) (HPC)",8 of 8
same,survivor count,"dose: 1.0 mg/kg/injection, schedule: Q03HX016 (ip), vehicle: Klucel (hydroxypropylcellulose) (HPC)",8 of 8
same,survivor count,"dose: 1.0 mg/kg/injection, schedule: Q03HX024 (ip), vehicle: Klucel (hydroxypropylcellulose) (HPC)",8 of 8
same,survivor count,"dose: 2.0 mg/kg/injection, schedule: Q01DX001 (ip), vehicle: Klucel (hydroxypropylcellulose) (HPC)",8 of 8
same,survivor count,"dose: 2.0 mg/kg/injection, schedule: Q01DX009 (oral), vehicle: Klucel (hydroxypropylcellulose) (HPC)",8 of 8
same,survivor count,"dose: 2.0 mg/kg/injection, schedule: Q03HX008 (ip), vehicle: Klucel (hydroxypropylcellulose) (HPC)",8 of 8
same,survivor count,"dose: 2.0 mg/kg/injection, schedule: Q03HX016 (ip), vehicle: Klucel (hydroxypropylcellulose) (HPC)",8 of 8
same,survivor count,"dose: 2.0 mg/kg/injection, schedule: Q03HX024 (ip), vehicle: Klucel (hydroxypropylcellulose) (HPC)",8 of 8
same,survivor count,"dose: 2.0 mg/kg/injection, schedule: Q04DX003 (ip), vehicle: Klucel (hydroxypropylcellulose) (HPC)",8 of 8
same,survivor count,"dose: 2.0 mg/kg/injection, schedule: Q08DX002 (ip), vehicle: Klucel (hydroxypropylcellulose) (HPC)",8 of 8
same,survivor count,"dose: 4.0 mg/kg/injection, schedule: Q01DX001 (ip), vehicle: Klucel (hydroxypropylcellulose) (HPC)",8 of 8
same,survivor count,"dose: 4.0 mg/kg/injection, schedule: Q01DX009 (oral), vehicle: Klucel (hydroxypropylcellulose) (HPC)",8 of 8
same,survivor count,"dose: 4.0 mg/kg/injection, schedule: Q04DX003 (ip), vehicle: Klucel (hydroxypropylcellulose) (HPC)",8 of 8
same,survivor count,"dose: 4.0 mg/kg/injection, schedule: Q08DX002 (ip), vehicle: Klucel (hydroxypropylcellulose) (HPC)",8 of 8
same,survivor count,"dose: 8.0 mg/kg/injection, schedule: Q01DX001 (ip), vehicle: Klucel (hydroxypropylcellulose) (HPC)",8 of 8
same,survivor count,"dose: 8.0 mg/kg/injection, schedule: Q04DX003 (ip), vehicle: Klucel (hydroxypropylcellulose) (HPC)",8 of 8
same,survivor count,"dose: 8.0 mg/kg/injection, schedule: Q08DX002 (ip), vehicle: Klucel (hydroxypropylcellulose) (HPC)",8 of 8
same,survivor count,"dose: 16.0 mg/kg/injection, schedule: Q01DX001 (ip), vehicle: Klucel (hydroxypropylcellulose) (HPC)",8 of 8
same,survivor count,"dose: 16.0 mg/kg/injection, schedule: Q01DX001 (oral), vehicle: Klucel (hydroxypropylcellulose) (HPC)",8 of 8
same,survivor count,"dose: 16.0 mg/kg/injection, schedule: Q04DX003 (ip), vehicle: Klucel (hydroxypropylcellulose) (HPC)",8 of 8
same,survivor count,"dose: 16.0 mg/kg/injection, schedule: Q08DX002 (ip), vehicle: Klucel (hydroxypropylcellulose) (HPC)",8 of 8
same,survivor count,"dose: 32.0 mg/kg/injection, schedule: Q01DX001 (oral), vehicle: Klucel (hydroxypropylcellulose) (HPC)",8 of 8
same,survivor count,"dose: 64.0 mg/kg/injection, schedule: Q01DX001 (oral), vehicle: Klucel (hydroxypropylcellulose) (HPC)",8 of 8
same,survivor count,"dose: 128.0 mg/kg/injection, schedule: Q01DX001 (oral), vehicle: Klucel (hydroxypropylcellulose) (HPC)",8 of 8
Cc1ncc(CNC(=O)N(CCCl)N=O)c(N)n1,survivor count,"dose: 22.0 mg/kg/injection, schedule: Q01DX001 (ip), vehicle: saline",10 of 10
same,survivor count,"dose: 33.0 mg/kg/injection, schedule: Q01DX001 (ip), vehicle: saline",10 of 10
same,survivor count,"dose: 44.0 mg/kg/injection, schedule: Q01DX001 (ip), vehicle: saline",10 of 10
same,survivor count,"dose: 66.0 mg/kg/injection, schedule: Q01DX001 (ip), vehicle: saline",10 of 10
same,survivor count,"dose: 100.0 mg/kg/injection, schedule: Q01DX001 (ip), vehicle: saline",10 of 10
same,survivor count,"dose: 150.0 mg/kg/injection, schedule: Q01DX001 (ip), vehicle: saline",10 of 10
COc1ccc2c(c1O)-c1cc(O)cc3c1C(C2)N(CCCl)CC3 (stereo unspecified),survivor count,"dose: 1.0 mg/kg/injection, schedule: Q01DX001 (ip), vehicle: DMSO",2 of 2
same,survivor count,"dose: 10.0 mg/kg/injection, schedule: Q01DX001 (ip), vehicle: DMSO",2 of 2
same,survivor count,"dose: 100.0 mg/kg/injection, schedule: Q01DX001 (ip), vehicle: DMSO",2 of 2
